Source: PubChem BioAssay (NCATS)
Inconclusive results, whose numbers are uncertain, are shown with a selection of clear calls. Where the call is inconclusive, the potency comes from a doubtful curve fit. Calls of active or inactive are those of the source. Calls follow the shape of the full dose curve.

By UniProt entry, the sequences of proteins in these tests, tags left out. Where a name states a change or a piece, a line headed by the entry shows the natural chain unless it says otherwise.
UniProt Q8JUX6: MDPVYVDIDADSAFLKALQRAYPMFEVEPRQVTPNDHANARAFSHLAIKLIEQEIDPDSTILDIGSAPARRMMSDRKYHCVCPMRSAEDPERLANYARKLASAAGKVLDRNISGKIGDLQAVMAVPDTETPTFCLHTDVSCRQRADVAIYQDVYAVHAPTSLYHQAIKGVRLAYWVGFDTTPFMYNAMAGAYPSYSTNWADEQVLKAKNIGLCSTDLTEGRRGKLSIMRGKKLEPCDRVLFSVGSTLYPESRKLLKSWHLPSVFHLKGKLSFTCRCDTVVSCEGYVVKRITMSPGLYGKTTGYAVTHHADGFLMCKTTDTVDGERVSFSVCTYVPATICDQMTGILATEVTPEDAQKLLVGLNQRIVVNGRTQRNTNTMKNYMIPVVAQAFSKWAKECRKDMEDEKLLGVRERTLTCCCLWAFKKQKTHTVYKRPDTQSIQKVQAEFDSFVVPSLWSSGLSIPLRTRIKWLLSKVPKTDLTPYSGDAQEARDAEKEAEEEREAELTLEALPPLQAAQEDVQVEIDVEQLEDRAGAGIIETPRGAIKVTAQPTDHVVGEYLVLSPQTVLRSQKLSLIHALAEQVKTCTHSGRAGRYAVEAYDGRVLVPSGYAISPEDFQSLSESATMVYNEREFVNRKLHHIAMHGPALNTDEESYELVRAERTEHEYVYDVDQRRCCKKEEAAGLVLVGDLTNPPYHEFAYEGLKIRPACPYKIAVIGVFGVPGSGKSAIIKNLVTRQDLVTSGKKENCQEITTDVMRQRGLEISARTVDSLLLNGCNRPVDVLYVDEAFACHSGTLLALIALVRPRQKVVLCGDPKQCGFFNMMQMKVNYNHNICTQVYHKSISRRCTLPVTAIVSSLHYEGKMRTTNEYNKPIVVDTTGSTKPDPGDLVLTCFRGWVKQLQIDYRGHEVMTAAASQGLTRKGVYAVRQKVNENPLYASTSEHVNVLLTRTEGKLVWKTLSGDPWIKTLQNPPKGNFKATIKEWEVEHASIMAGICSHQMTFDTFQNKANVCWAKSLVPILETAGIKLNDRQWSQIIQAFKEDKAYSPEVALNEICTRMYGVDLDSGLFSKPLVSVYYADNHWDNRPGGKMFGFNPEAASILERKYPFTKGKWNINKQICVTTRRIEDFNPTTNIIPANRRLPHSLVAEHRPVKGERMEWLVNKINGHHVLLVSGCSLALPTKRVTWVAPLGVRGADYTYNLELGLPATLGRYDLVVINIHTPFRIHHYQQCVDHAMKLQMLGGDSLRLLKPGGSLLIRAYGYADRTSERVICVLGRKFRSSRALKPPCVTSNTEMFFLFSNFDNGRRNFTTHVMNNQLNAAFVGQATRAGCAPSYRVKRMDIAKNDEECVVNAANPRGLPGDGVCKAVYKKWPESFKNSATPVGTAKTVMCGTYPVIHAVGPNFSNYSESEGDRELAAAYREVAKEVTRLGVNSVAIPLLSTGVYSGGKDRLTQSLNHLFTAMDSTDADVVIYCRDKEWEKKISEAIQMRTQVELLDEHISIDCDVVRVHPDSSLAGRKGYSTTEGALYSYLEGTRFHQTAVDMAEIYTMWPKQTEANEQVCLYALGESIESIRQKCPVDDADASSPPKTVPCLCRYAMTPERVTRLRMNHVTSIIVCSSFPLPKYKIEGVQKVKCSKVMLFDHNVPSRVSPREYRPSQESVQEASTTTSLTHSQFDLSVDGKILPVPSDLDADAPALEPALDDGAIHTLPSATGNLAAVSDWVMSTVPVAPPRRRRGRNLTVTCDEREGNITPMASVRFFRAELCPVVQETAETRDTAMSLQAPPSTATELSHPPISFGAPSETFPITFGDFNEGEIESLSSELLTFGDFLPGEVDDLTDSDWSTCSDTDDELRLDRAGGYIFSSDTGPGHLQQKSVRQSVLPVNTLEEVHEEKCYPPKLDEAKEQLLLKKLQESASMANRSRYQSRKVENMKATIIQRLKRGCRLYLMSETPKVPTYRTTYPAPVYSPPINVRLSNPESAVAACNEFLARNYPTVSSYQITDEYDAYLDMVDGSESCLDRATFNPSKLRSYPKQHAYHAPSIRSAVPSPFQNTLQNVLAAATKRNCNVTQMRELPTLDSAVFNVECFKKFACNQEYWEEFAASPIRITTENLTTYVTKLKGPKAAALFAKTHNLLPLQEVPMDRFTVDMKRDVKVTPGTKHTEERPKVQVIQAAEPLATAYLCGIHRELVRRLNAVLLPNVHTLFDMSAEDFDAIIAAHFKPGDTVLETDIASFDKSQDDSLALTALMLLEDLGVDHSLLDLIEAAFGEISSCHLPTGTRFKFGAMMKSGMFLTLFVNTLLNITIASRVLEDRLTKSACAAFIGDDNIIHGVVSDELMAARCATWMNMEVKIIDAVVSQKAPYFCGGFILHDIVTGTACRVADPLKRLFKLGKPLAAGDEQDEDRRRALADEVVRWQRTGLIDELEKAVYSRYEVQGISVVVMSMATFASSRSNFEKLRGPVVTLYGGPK

These compounds were tested against Polyprotein P1234 (Chikungunya virus (strain S27-African prototype)) (UniProt Q8JUX6) (assay: Selectivity profile for inhibitors of NSP2Pro chikungunya virus (CHIKV): Endogenous NS2/3 peptide Counterscreen (AID 1964103; also: nearly all actives have a fitted effect of over 55% in size)). Conditions: Purified CHIKV nsP2 protease, endogenous NS2/3 peptide cleavage; series mostly up to 51 µM.
Source text: PI: Natalia J. Martinez Ph.D.
National Center for Advancing Translational Sciences (NCATS),
National Institute of Health (NIH), Rockville, Maryland
Chikungunya virus (CHIKV) is a mosquito-borne RNA virus that has emerged as one of the most important global arboviral threats in the last decade. Although the first CHIKV vaccine has recently been FDA approved for use in healthy adults at increased risk, to date, there are no available antiviral drugs for CHIKV infection. CHIKV nsP2 protease plays a crucial role in the processing of the viral polypeptide precursor to release enzymes required for viral replication, thus making it a promising drug target for antiviral discovery. Here, we established a high-throughput pipeline to identify small molecule inhibitors of nsP2 proteolytic activity. The pipeline is composed of a suite of 1,536-well in vitro assays to support quantitative high-throughput (qHTS) screening campaigns. Specifically, we developed a fluorescence resonance energy transfer (FRET)-based assay using a fluorogenic peptide substrate encompassing an endogenous cleavage site and purified recombinant protease domain (nsP2pro). Using this assay, we interrogated ~37,000 small molecules, including those in drug repurposing libraries as well as chemically diverse and medicinal chemistry-friendly compounds. Hits were selected for follow-up validation against full-length nsP2 and an additional peptide. FRET-based 1,536-well assays for papain, hepatitis C virus NS3-4A, and human furin proteases were implemented to characterize compound selectivity. […] Novel compounds were identified to be potential nsP2 inhibitors and molecular docking analyses were performed to explain the binding mode of selected hits. In vitro antiviral activity was evaluated for a subset of compounds using a high-throughput CHIKV infection assay. To our knowledge, the pipeline presented here is unprecedented for CHIKV antiviral discovery research.
PROTOCOL TABLE (as described by Inglese J, Shamu CE and Guy RK. 2007)
SEQUENCE No. (e.g., 1, 2, 3, etc.); […] (e.g., Cells, Incubation, Reagent, etc.); VALUE; DESCRIPTION.
1; Control / Compound; 20 nL; Echo 655 acoustic dispenser, Greiner 1536-well solid bottom black plate.
2; Enzyme; 4 uL; BioRAPTR FRD liquid dispenser (Beckman Coulter).
3; Incubation; 15 min; room temperature.
4; Reagent; 4 uL; 2.5 uM endogenous NS2/3 peptide substrate.
5; Incubation; 1 hr; room temperature.
6; Detection; Fluorescence; WiewLux microplate reader (PerkinElmer), 525 nm excitation, 598/25 nm emission.
NOTES (numbers refer to sequence numbers above).
1. Briefly, 20 nL DMSO, positive control ZnAc (20nM final concentration), and test compounds were transferred into a 1,536-well solid bottom black plate (789176-F, Greiner One) via Echo 655 acoustic dispenser (Beckman Coulter). For primary screens, compounds were tested at 7 concentrations, 1:3 dilution points ranging from 25 uM to 34 nM. Follow-up confirmatory screens were carried out at 11 concentrations, 1:3 dilution points from 25 uM to 0.42 nM.
2. Four uL nsP2pro enzyme mix (150 nM final concentration) in 10 mM Tris-HCl pH 8.0 with 0.01% Tween 20 assay buffer was dispensed into the plate using a BioRAPTR FRD liquid dispenser (Beckman Coulter).
3. The plate was incubated at room temperature (protected from light) for 15 min
4. Four microliter of endogenous NS2/3 peptide substrate (peptide 3: TMR-[…]/APSYR-K-QSY7; 2.5 uM final concentration) in assay buffer was added to the plate.
5. After 1 hour, plates were immediately read on a ViewLux high-throughput CCD imager (Exposure = 10 sec, Gain = High, Speed = Slow, Binning = 2X). The above assay was also incorporated in the NCATS HTS facility41, which allowed for robotic liquid and compound dispensing, microplate handling, and fluorescence reading.
Inglese J, Shamu CE and Guy RK, Reporting data from high throughput screening of small molecule libraries, Nature Chemical Biology, 2007, 3(8): 438-441. doi.org/10.1038/nchembio0807-438.
Potency is read from the fitted curve at half-maximal effect.

Compound | Potency
O=C(O)Cc1ccc(O)c(O)c1 | inconclusive: 29.1 µM [inhibitor, partial curve, poor fit]
CCOC(=O)[C@H]1O[C@@H]1C(=O)N[C@@H](CC(C)C)C(=O)NCCC(C)C | inconclusive: 16.3 µM [inhibitor, partial curve]
C=C(CO)C(=O)O[C@H]1C[C@@]23O[C@@H]2CC/C(=C/[C@H]2OC(=O)C(=C)[C@H]12)CO[C@H]3O | inconclusive: 12.7 µM [inhibitor, partial curve]
C=CC(C)(C)c1[nH]c2ccccc2c1C1=C(O)C(=O)C(c2c[nH]c3c(CC=C(C)C)cccc23)=C(O)C1=O | inactive
OCc1ccc(-c2ccc3ncnc(NCCc4cnc[nH]4)c3c2)o1 | inactive
CN(C)C(=S)SSC(=S)N(C)C | active: 9.19 µM
C/C=C/C=C/C(=O)OC1CC/C=C/C(O)C(O)C(CCC)OC1=O (stereo not given) | inactive
O=C(O)C(=O)Nc1cccc(-c2nn[nH]n2)c1 | inconclusive: 20.6 µM [inhibitor, partial curve, poor fit]
C/C=C/c1ccc(O)c(OC)c1 | inconclusive: 20.6 µM [inhibitor, partial curve]
Cc1cccc(NC(=O)N[C@@H]2N=C(c3ccccc3)c3ccccc3N(C)C2=O)c1 | inconclusive: 13 µM [inhibitor, partial curve]
O=C1C=CC2OC(c3ccccc3)C(O)C2O1 (stereo not given) | inconclusive: 20.6 µM [inhibitor, partial curve]
C=CCNc1nnc(-c2cccc3ccccc23)o1 | inconclusive: 18.3 µM [inhibitor, partial curve]
CC(C)c1cc2c(c(O)c1O)[C@@]13CCCC(C)(C)C1[C@@H](O)[C@@H]2OC3=O (stereo not given in full) | inconclusive: 20.2 µM [inhibitor, partial curve]
CCOC(=O)CC(SP(=S)(OC)OC)C(=O)OCC (stereo not given) | active: 18.3 µM
O=C1C(=Cc2cccnc2)C(=O)c2ccccc21 | active: 18.3 µM
CC(C)=CCC1=C(O)c2ccccc2C(=O)C1=O | inconclusive: 14.9 µM [inhibitor, partial curve]
N#Cc1ccc(-c2ccc(CNc3ccc(N4CCC(C#N)CC4)cc3)o2)cc1 | inconclusive: 18.3 µM [inhibitor, partial curve]
O=C(Nc1ccc(N2CCOCC2)c(Cl)c1)c1ccc(Br)o1 | inactive
CCN(CC)CCNc1ccc(CO)c2sc3ccccc3c(=O)c12 | inconclusive: 23.1 µM [inhibitor, partial curve, poor fit]
Cc1ccc(S(=O)(=O)Nc2cc(SCC(=O)O)c(O)c3ccccc23)cc1[N+](=O)[O-] | active: 2.59 µM

Two compounds drawn at random from those above, as already listed:
Compound | Potency
OCc1ccc(-c2ccc3ncnc(NCCc4cnc[nH]4)c3c2)o1 | inactive
CCOC(=O)CC(SP(=S)(OC)OC)C(=O)OCC (stereo not given) | active: 18.3 µM

Following part

Compound | Potency
COC(=O)C1=CO[C@@H](O[C@@H]2O[C@H](CO)[C@@H](O)[C@H](O)[C@H]2O)[C@H]2[C@@H]1C=C[C@]21C=C([C@H](C)OC(=O)/C=C/c2ccc(O)cc2)C(=O)O1 | inconclusive: 4.85 µM [inhibitor, partial curve]
COc1ccc(C(=O)N(Cc2ccco2)Cc2ccco2)c(O)c1 | inconclusive: 10.3 µM [inhibitor, partial curve]
O=C(NC1CCCCC1)N1Cc2[nH]cnc2C[C@H]1c1nc(-c2ccc(Cl)cc2)no1 | inconclusive: 21.1 µM [inhibitor, partial curve]
CC(CO[C@@H]1O[C@H](COC(=O)/C=C/c2ccc(O)c(O)c2)[C@@H](O)[C@H](O)[C@H]1O)C1(O)COC(=O)C1 (stereo not given in full) | inactive
Cc1ccc(-c2nc3cccc(C)n3c2Nc2ccc3c(c2)OCO3)o1 | inactive
O=C1c2ccccc2-c2nc3nnnn3nc21 (tested in a mixture with another compound) | active: 0.919 µM
COCCN1C(=O)CO[C@H]2CN(c3ncccn3)C[C@H]21 | inconclusive: 42.1 µM [inhibitor, partial curve]
COc1cc(C(=O)O)cc(OC)c1O | inactive
CC(C)COC(=O)N1[C@@H](c2ccco2)[C@@H](CO)C[C@]12CCCCNC2=O | inconclusive: 20.6 µM [inhibitor, partial curve]
O=c1oc2c3c(ccc2c2ccccc12)OCN(Cc1ccc(Cl)cc1)C3 | inconclusive: 10.3 µM [inhibitor, partial curve]
CN1CCN(c2ncc3c(n2)CCN(Cc2ccc(Br)s2)C3)CC1 | inconclusive: 16.3 µM [inhibitor, partial curve]
CC(O)c1ccc(-c2ccc3ncnc(N4CCOCC4)c3c2)o1 (stereo not given) | inconclusive: 20.6 µM [inhibitor, partial curve]
Cc1cc(Nc2ccccc2C(=O)O)ccc1Cl | inconclusive: 18.3 µM [inhibitor, partial curve]
O=C1c2ccccc2NC(c2ccc(-c3cccs3)o2)N1O (stereo not given) | inactive
CC1CCC(=O)CC(O)C(O)CC(=O)O1 (stereo not given) | inactive
CCOc1ccc(NC(=O)c2c(NC(=O)Cc3ccccc3)sc3c2CCC(C)C3)cc1 (stereo not given) | active: 13 µM
c1c2c(cc3c1OCO3)-c1cc3ccc4c(c3c[n+]1CC2)OCO4 | inconclusive: 10.3 µM [inhibitor, partial curve]
COC(=O)[C@H](O)[C@H]1C(C)(C)[C@H](OC(=O)C(C)C)[C@@]2(O)C(=O)[C@]1(C)C1CC[C@]3(C)C(CC(=O)O[C@H]3c3ccoc3)[C@]13O[C@@H]32 (stereo not given in full) | inactive
O=C(CCN1CCN(C(=O)OCc2cc(Cl)cc(Cl)c2)CC1)c1ccc2[nH]c(=O)oc2c1 | inconclusive: 20.6 µM [inhibitor, partial curve]
COc1nc2ccc(Br)cc2cc1[C@@H](c1ccccc1)[C@@](O)(CCN(C)C)c1cccc2ccccc12 | inconclusive: 20.6 µM [inhibitor, partial curve]
